Test results reported in publication PMC10646254.
Residue numbers refer to the chain shown, from its start. These are yes or no findings as the source states them, for the method shown. Binding seen in cells or lysates may run through a third protein. Some entries that bind do so weakly or less than the wild type. For part of these data: Sequences can lack the tags named with a protein.

Amino acid sequences for entries named in this document (tags omitted).
UniProt P08047: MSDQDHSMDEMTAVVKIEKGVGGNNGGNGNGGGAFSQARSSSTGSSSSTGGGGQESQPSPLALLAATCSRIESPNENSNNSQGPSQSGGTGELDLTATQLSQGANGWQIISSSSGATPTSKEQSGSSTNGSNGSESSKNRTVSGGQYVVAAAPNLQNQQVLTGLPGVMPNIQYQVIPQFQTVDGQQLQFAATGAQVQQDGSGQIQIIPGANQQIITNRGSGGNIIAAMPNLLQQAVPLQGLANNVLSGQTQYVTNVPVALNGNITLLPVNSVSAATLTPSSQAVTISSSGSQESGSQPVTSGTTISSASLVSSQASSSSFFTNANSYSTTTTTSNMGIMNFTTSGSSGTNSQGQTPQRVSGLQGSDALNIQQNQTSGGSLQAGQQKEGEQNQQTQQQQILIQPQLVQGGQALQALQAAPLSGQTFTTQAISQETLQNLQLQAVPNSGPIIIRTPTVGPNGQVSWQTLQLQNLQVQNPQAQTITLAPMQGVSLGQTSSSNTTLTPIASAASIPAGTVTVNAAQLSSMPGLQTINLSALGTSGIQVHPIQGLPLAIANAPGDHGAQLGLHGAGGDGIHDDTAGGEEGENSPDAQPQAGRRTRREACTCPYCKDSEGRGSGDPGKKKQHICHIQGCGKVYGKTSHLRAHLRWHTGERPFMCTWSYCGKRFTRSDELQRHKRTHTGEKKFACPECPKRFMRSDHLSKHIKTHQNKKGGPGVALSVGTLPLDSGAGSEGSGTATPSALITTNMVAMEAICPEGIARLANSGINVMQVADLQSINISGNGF
UniProt Q02447: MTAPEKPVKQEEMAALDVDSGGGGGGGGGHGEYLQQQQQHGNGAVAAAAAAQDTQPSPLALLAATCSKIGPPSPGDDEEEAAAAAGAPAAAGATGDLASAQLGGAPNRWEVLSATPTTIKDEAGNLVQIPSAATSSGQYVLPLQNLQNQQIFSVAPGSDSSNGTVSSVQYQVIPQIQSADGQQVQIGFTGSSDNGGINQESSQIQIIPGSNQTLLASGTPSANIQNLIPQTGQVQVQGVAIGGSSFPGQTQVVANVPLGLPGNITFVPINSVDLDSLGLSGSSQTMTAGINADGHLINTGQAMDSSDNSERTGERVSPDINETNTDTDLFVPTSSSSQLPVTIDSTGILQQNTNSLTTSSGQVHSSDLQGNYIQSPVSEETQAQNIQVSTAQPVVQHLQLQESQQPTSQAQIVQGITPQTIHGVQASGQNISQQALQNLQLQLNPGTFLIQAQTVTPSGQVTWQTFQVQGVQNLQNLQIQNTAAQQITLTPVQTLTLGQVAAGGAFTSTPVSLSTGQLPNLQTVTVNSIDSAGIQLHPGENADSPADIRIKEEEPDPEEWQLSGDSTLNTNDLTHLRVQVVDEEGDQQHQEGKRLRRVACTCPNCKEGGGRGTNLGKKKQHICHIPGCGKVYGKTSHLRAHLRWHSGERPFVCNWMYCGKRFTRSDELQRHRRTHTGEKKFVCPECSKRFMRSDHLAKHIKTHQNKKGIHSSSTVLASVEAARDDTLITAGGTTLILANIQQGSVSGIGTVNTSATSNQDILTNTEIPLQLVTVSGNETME

Experiments:
[1] = biological target: T1, FLAG-tagged ELK4 (wild type) (human) (UniProt P28324); assay: co-IP; ELK4 with full-length SP1 or SP3 and their serial truncations (domain deletions); cell line not stated
T1 sequence: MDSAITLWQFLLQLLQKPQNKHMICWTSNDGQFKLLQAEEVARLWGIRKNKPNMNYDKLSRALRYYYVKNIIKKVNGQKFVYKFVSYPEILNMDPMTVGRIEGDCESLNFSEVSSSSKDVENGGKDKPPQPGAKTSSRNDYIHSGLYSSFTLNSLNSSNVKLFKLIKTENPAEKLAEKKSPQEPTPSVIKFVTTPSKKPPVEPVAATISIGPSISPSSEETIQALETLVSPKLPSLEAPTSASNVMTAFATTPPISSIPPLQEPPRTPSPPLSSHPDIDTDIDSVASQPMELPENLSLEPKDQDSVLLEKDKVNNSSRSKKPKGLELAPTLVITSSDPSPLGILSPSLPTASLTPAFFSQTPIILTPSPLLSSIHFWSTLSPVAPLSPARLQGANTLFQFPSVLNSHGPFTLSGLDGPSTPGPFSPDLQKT

[2] = biological target: T1, FLAG-tagged ELK4 (wild type) (human); assay: co-IP; serum-stimulated cells; in vitro dephosphorylation by λ-protein phosphatase (λ-PPase)
[3] = biological target: T2, endogenous ELK4 (human (endogenous in HCT116, SW480, RKO)) (UniProt P28324); assay: proximity ligation; Duolink in situ PLA on fixed, permeabilised HCT116, SW480 and RKO cells with antibodies against ELK4 and SP1 or SP3
T2 sequence: T1 sequence

[4] = biological target: T3, ELK4 T361/T366/S381/S387E mutant (human) (UniProt P28324); assay: co-IP; HCT116 cells transfected for 24 h; lysis in 20 mM Tris-HCl pH 8.0, 150 mM NaCl, 1% NP40; agarose beads 3 h at 4 °C; cells with or without serum stimulation (indicated concentrations, 10% for 15 min), U0126 (10 µM), selumetinib or ulixertinib
T3 sequence: T1 sequence with T361E, T366E, S381E, S387E

[5] = biological target: T1, FLAG-tagged ELK4 (wild type) (human); assay: as above
[6] = biological target: T4, P329A mutant ELK4 (human) (UniProt P28324); assay: as above
T4 sequence: T1 sequence with P329A

Question: For “SP1, full length, in the pcDNA-HA expression vector (from UniProt P08047 1-785)”, which binding [1] is on record?
Answer: The binding was “binds”.

Question: How did the binding [1] turn out when “SP3, full length, in the pcDNA-HA expression vector (from UniProt Q02447 1-781)” was run?
Answer: Its binding is “binds”.

Question: With “endogenous SP1 (from UniProt P08047 1-785)” as the substance, how does the binding [2] read?
Answer: Its binding is “binds weakly”.

Question: And the binding [3]?
Answer: The binding was “binds”.

Question: And the binding [4]?
Answer: Its binding is “binds”.

Question: And the binding [5]?
Answer: The binding was “binds”.

Question: And the binding [6]?
Answer: The binding was “binds”.

Question: What does the source list for “endogenous SP3 (from UniProt Q02447 1-781)”?
Answer: binding [2]: binds weakly; binding [3]: binds; binding [4]: binds; binding [5]: binds; binding [6]: binds
